Data: paper PMC12040169 (PLOS Biology, 2025)
This is one part of the list.

system: T1, CTL2-GFP (C. trachomatis L2/434/Bu, GFP-expressing); set-up: species or system HeLa; Intracellular C. trachomatis growth in HeLa cells, bulk GFP fluorescence relative to DMSO; details: bulk GFP, single well; 28.5 h, 10 µM; inhibitor
T1 construct: L2/434/Bu, GFP-expressing

Compound | % of control remaining [%]
COc1ccc([C@@]23CCC(N)C[C@@H]2N(C)CC3)c(F)c1OC (stereo partly drawn) [CBK067416] | 123.096
c1ccc2c(c1)nc(N1CCNCC1)n1cnnc21 [CBK270145] | 124.079
c1ccc(-c2nnc3sc(-c4ccccn4)nn23)cc1 [CBK267344] | 134.943
O=C(Cc1c[nH]c2ccccc12)N1CCC2(CCCN(C(=O)c3ccc(OC(F)(F)F)cc3)C2)C1 (stereo not drawn) [CBK131579] | 121.232
Brc1ccc(-c2nnco2)cc1 [CBK026512] | 115.658
CCOC(=O)N1CCC(NC(=O)N(CCC#N)C2CCCCC2)CC1 [CBK156384] | 117.961
CCOC(=O)C1=c2s/c(=C\c3cccnc3)c(=O)n2C(N)=C(C#N)C1c1cccnc1 (stereo not drawn) [CBK262549] | 85.8526
O=[N+]([O-])c1cc2c(cc1C(Nc1ccccn1)c1cc(Cl)c3cccnc3c1O)OCO2 (stereo not drawn) [CBK267795] | 50.0861
CCOC(=O)C1CCCN(S(=O)(=O)c2cc(C)c(Cl)cc2C)C1 (stereo not drawn) [CBK044846] | 59.8349
C=CCNC(=O)C1C2CCC3(CC(=O)c4cc(Cl)ccc4O3)C21 (stereo not drawn) [CBK284873] | 130.972
c1ccc(-c2nccnc2NCC2CC2)cc1 [CBK088539] | 100
CCOC(=O)C1CCCN(Cc2cc(F)cc(C(C)=O)c2O)C1 (stereo not drawn) [CBK304020] | 105.593
COC(=O)[C@H]1CN(C(=O)C2CC(=O)N(C)C2)C[C@@H]1c1ccccc1F (stereo partly drawn) [CBK285470] | 76.9558
O=C(NO)c1nc[nH]c1C(=O)NO [CBK262077] | 100
Cc1ccc(Oc2nnnn2-c2ccccc2)c(Br)c1 [CBK002827] | 114.035
Cc1csc(CCNCc2c(C(C)C)nn(C)c2N(C)C)n1 [CBK304140] | 119.166
CC(CC(=O)N1CCOC(c2nc(C(C)(C)C)n[nH]2)C1)n1cccc1 (stereo not drawn) [CBK305214] | 122.715
N#Cc1nc(-c2ccccc2)oc1NCCN1CCCCC1 [CBK264573] | 115.166
Cc1ccc(C(=O)N2CCN(S(=O)(=O)c3sc(C(=O)O)c(C)c3C(=O)O)CC2)s1 [CBK297150] | 140.345
O=C1CC(c2ccccc2)=NN1c1nc(-c2ccccc2)cc(-c2ccc(F)cc2)n1 [CBK261717] | 116.748
CCN(CCO)c1ccc(Nc2nc(-c3c(OC)cccc3OC)cn3ccnc23)cc1 [CBK066267] | 134.316
COc1cc(CC(=O)Nc2cccc(-c3ccc(OC4CCNCC4)cc3)n2)cc(OC)c1OC [CBK138351] | 120.067
CCOC(=O)C(Cc1ccccc1)NC(=O)c1cn[nH]c1C (stereo not drawn) [CBK305499] | 124.295
N#CCCCN1CCC(Oc2nccnc2OCc2cccc(C(F)(F)F)c2F)CC1 [CBK153646] | 125.216
CC(NC(=O)CCN1CCN(C)CC1)c1cc2cc(Cl)ccc2o1 (stereo not drawn) [CBK281601] | 97.6584
Cc1ccc(C(=O)O)cc1NC(=O)c1ncn(-c2ccccc2)n1 [CBK269181] | 130.842

Molecules above with a Cl atom, in the order listed:
Compound | % of control remaining [%]
O=[N+]([O-])c1cc2c(cc1C(Nc1ccccn1)c1cc(Cl)c3cccnc3c1O)OCO2 (stereo not drawn) [CBK267795] | 50.0861
CCOC(=O)C1CCCN(S(=O)(=O)c2cc(C)c(Cl)cc2C)C1 (stereo not drawn) [CBK044846] | 59.8349
C=CCNC(=O)C1C2CCC3(CC(=O)c4cc(Cl)ccc4O3)C21 (stereo not drawn) [CBK284873] | 130.972
CC(NC(=O)CCN1CCN(C)CC1)c1cc2cc(Cl)ccc2o1 (stereo not drawn) [CBK281601] | 97.6584

(listing goes on)

Compound | % of control remaining [%]
N#Cc1c(NC(=O)c2cc(S(=O)(=O)N3CCCCC3)c(Cl)cc2Cl)sc2c1CCCC2 [CBK264579] | 114.304
O=C(Nc1nc2ccc(Cl)cc2s1)c1nc(SCc2ccccc2)ncc1Cl [CBK268825] | 142.487
O=C(O)CCCC(=O)Nc1ccc(C(=O)O)cc1 [CBK261534] | 100.635
CNC(=O)Nc1ccc(C(C)(C)C)cc1Br [CBK086434] | 104.372
Cc1nn(CCC#N)c(C)c1[C@@H]1C=C[C@@H](NC(=O)NCc2ccccc2)C1 [CBK289174] | 117.421
COCC(=O)NC1CCN(CC2(c3cccc(F)c3)CCCC2)CC1 [CBK282546] | 86.2472
CC(CN1CCCCC1)NC(=O)c1cc(-c2ccncc2)nc2ccc(Br)cc12 (stereo not drawn) [CBK267756] | 113.717
CCNC(=O)NC[C@H]1C[C@@H]2CCN1C[C@@H]2c1cc(-c2ccc(F)cc2)nn1C [CBK289110] | 120.749
Cc1noc(C)c1NC(=O)c1cnc2ccccc2n1 [CBK200220] | 95.7186
COc1cccc(NC(=O)N(CCCO)C2CCc3ccccc32)c1 (stereo not drawn) [CBK305397] | 111.903
COc1ccc([C@@]23CC[C@@H](NC(=O)Nc4ccc(OC)c(C(F)(F)F)c4)C[C@@H]2N(C)CC3)cc1OC [CBK051268T] | 66.1024
NC(=O)C1(N2CCCCC2)CCN(C(=S)Nc2ccc(Oc3ccccc3)cc2)CC1 [CBK265862] | 219.023
O=C(CCN1CCOCC1)Nc1cc(Cl)cc(Cl)c1 [CBK057021] | 115.538
COc1ccc(CCn2cncc2-c2cn(C)nc2C)cc1C [CBK281814] | 151.697
COc1ccccc1C1(NC(=O)CCn2cccn2)CCCC1 [CBK283626] | 106.855
CC(C)C(NC(=O)C1CCC(C(C)(C)C)CC1)C(=O)O (stereo not drawn) [CBK286610] | 122.373
Cc1ccc(OCCC(=O)NCC(c2cccs2)N2CCOCC2)cc1 (stereo not drawn) [CBK305976] | 111.503
CSc1nc(O)c(C(c2ccc(C)cc2)c2c(O)nc(SC)nc2O)c(O)n1 [CBK265313] | 130.168
O=S(=O)(Nc1ccc(N2CCNCC2)c2ccccc12)c1cc(Cl)sc1Cl [CBK003116C] | 71.7731
COc1cccc(CN2CCN(C(=O)c3cc(-c4ccncc4)nc4ccc(C)cc34)CC2)c1 [CBK267760] | 117.495
COC(=O)c1scc(NS(=O)(=O)c2cccc(C(F)(F)F)c2)c1C(=O)OC [CBK026680] | 101.816
Cc1[nH]c2ccc(F)cc2c1CC(=O)N(C)CCN1CCCCC1 [CBK282748] | 123.216
COc1cc(CNc2cc(-c3ccccc3N(C)C)ncn2)cc(OC)c1OC [CBK037123] | 99.3861
N#Cc1cccc(S(=O)(=O)N2CCCCC2CO)c1 (stereo not drawn) [CBK051524] | 128.608
COc1cccc(CN2CCCC3(C2)NCCc2c3[nH]c3cc(F)ccc23)c1 (stereo not drawn) [CBK039786] | 88.7603
COc1ccc(OC)c(-c2nc(Nc3ccccc3C)sc2CC(=O)O)c1 [CBK126811] | 91.2247

Compound | % of control remaining [%]
CCOC(=O)N1CCC(NS(=O)(=O)c2cc(Br)ccc2OC)CC1 [CBK045463] | 127.689
COc1ccc([C@@]23CC[C@@H](NC(=O)Nc4ccc(F)c(C#N)c4)C[C@@H]2N(C)CC3)cc1OC [CBK051659T] | 115.653
CN(C)S(=O)(=O)c1ccc2c(c1)nc1n2CCC1 [CBK115558] | 139.165
CCC(Sc1ccc2nnc(-c3cccnc3)n2n1)C(=O)O (stereo not drawn) [CBK287623] | 122.889
CC(=O)C(C(=O)Nc1ccc(F)cc1)C(c1cccc2ccccc12)C(C#N)C#N (stereo not drawn) [CBK262081] | 113.757
O=C(NCC1CCCO1)c1ccccc1Sc1ccc([N+](=O)[O-])cc1Cl (stereo not drawn) [CBK266041] | 121.701
COc1ccc(C[C@@]23CC[C@@H](NC(=S)NCc4ccccc4)C[C@@H]2N(C)CC3)cc1 [CBK004262] | 138.528
CN(C)/C=N/c1nc(=O)[nH]c2c1ncn2C1CC(O)C(CO)O1 (stereo not drawn) [CBK201285] | 135.016
CCC1CCCCN1C(=O)c1sc(C)nc1C (stereo not drawn) [CBK089359] | 60.8973
COc1cc(-c2nccnc2N[C@@H]2CCN(Cc3ccccc3)C2)cc(OC)c1OC [CBK037651] | 172.088
COc1ccccc1-c1cnc(Nc2ccc(N3CCOCC3)cc2)c2nccn12 [CBK091230] | 189.714
Cc1cc(-c2cn3cc(C(=O)N4CCNCC4)nc3c(=O)n2C)c(C)o1 [CBK307325] | 95.0449
CC(CCN(CCN)C(=O)N1CCC(Cn2cncn2)(C2CCCCC2)CC1)c1ccccc1 (stereo not drawn) [CBK002130C] | 112.659
O=C(COc1ccccc1)Nc1ccccc1N1CCNCC1 [CBK028279T] | 115.893
CC(C)(C)OC(=O)N1CCC(C2OCc3cc(C(=O)N4CCNC(=O)C4)ccc3O2)CC1 (stereo not drawn) [CBK173277] | 134.687
CN1CCN(C(=O)CNC(=O)CNS(=O)(=O)c2ccccc2)CC1 [CBK268651] | 145.854
Nc1cc2cccnc2c(-c2ccc(OC(F)(F)F)cc2)n1 [CBK061926] | 118.962
Fc1ccc(Oc2nccnc2N2CCN(CCOc3cccnc3)CC2)cc1 [CBK083037T] | 117.23
Cc1cc(C)nc(NC(=O)OCCc2ccncc2)c1 [CBK138233] | 111.032
CCOc1ccc(C(C)(CC(=O)O)C(=O)O)cc1 (stereo not drawn) [CBK261361] | 90.1547
Cc1nc(S)[nH]c(=O)c1Cc1ccc(F)cc1 [CBK288456] | 117.621
Cc1ccc(O)c(Nc2ncnc3ccccc23)c1 [CBK266020C] | 188.939
CNS(=O)(=O)c1ccc(CCC(=O)N(C)Cc2cnn(C)c2)cc1 [CBK305712] | 87.455
COc1cccc2cc(C(=O)Nc3cccc(C)n3)oc12 [CBK287659] | 103.46
COc1cc(C(C)=O)ccc1OCCCN1CCC(O)(C(=O)c2ccc(Cl)c(Cl)c2)CC1 [CBK024875C] | 86.1712
COc1ccc(C(=O)N(CCC#N)Cc2ccco2)cc1 [CBK304862] | 97.1233
